Test results from US10053487B2, “Neuroactive 19-alkoxy-17(20)-Z-vinylcyano-substituted steroids, prodrugs thereof, and methods of treatment using same” (priority 2012, dated 2018).

Key:
[1] = test system: tadpoles; assay: Tadpole loss of righting reflex (LRR) and loss of swimming reflex (LSR); type: in vivo; settings: Hill coefficient; for Tadpole LRR nHill: loss of righting reflex
Text: Table 3 discloses the anesthetic effects of the compounds of the present disclosure. In particular, the anesthetic effect of the compounds of the present disclosure on Loss of Righting Reflex (LRR) and Loss of Swimming Reflex (LSR).
A quantal dose-response curve for loss of righting reflect (LRR) and loss of swimming reflex (LSR) caused by Compound 1 in tadpoles, is illustrated in FIG. 3, as well. ^aMethods used are known in the art (see, e.g., E. Stastna, et al., Neurosteroid Analogues. 16. A New Explanation for the Lack of Anesthetic Effects in Δ^16-Alphaxalone and Identification of a Δ^17(20) Analogue with Potent Anesthetic Activity, J. Med. Chem., 54(11), pp. 3926-34 (2011)). Error limits are calculated as standard error of the mean (N=10 or more animals at each of five or more different concentrations).

[2] = test system: T1, GABAA receptors (picrotoxin binding site); assay: [35S]-TBPS displacement (non-competitive displacement from the picrotoxin binding site); settings: Hill coefficient; ± SEM
T1 construct: other: duplicate experiments performed in triplicate; ± SEM; other: Hill coefficient
Method: The IC50 values for the compounds of Scheme 1 (i.e., Compounds 1 and 2) as non-competitive displacers of [^35S]-TBPS from the picrotoxin binding site on GABAA receptors are reported in Table 1.
Results presented are from duplicate experiments performed in triplicate. Error limits are calculated as standard error of the mean. Methods used are known in the art (see, e.g., E. Stastna, et al., Neurosteroid Analogues. 16. A New Explanation for the Lack of Anesthetic Effects in Δ^16-Alphaxalone and Identification of a Δ^17(20) Analogue with Potent Anesthetic Activity, J. Med. Chem., 54(11), pp. 3926-34 (2011)).

| SMILES | Tadpole LRR nHill [1] | Tadpole LSR nHill ([1]; loss of swimming reflex) | Inhibition of [35S]-TBPS binding, nHill [2] |
| --- | --- | --- | --- |
| COC[C@]12CC[C@@H](O)C[C@@H]1CC[C@@H]1[C@@H]2CC[C@]2(C)/C(=C\C#N)CC[C@@H]12 [Compound 1, [3α,5α,17(20)Z]-19-methoxypregn-17(20)-ene-21-nitrile] | −1.32 ± 0.23 | −20.0 ± 0.43 | 1.21 ± 0.11 |
| COC[C@]12CC[C@@H](O)C[C@@H]1CC[C@@H]1[C@@H]2CC[C@]2(C)/C(=C/C#N)CC[C@@H]12 [Compound 2, [3α,5α,17(20)E]-19-methoxypregn-17(20)-ene-21-nitrile] | −1.97 ± 0.65 |  | 0.91 ± 0.11 |
